Record: PubChem BioAssay AID1259425 (University of Nebraska Medical Center, 2018)

- Purpose: 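Find knockdowns that reproduce the gene expression pattern seen when KSR1 is lost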 (primary screen)
- System: HCT116 human colon cancer cells
- Reagent: siRNA pool against human genes, 50 nM siRNA
- Read-out: 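mRNA of six signature genes measured together by branched-DNA assay after 50 nM siRNA pool, blank removed, divided by geometric mean of two housekeeping genes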
- Scale: BNIP3L mRNA: higher = more BNIP3L transcript after knockdown
Here is a random part of about 14,000 deposited reagents. Not all columns of the deposit are shown. The record does not give: the time to read-out.

For DRC11, how do the results read?
BNIP3L mRNA, set 1: 0.133

What is on record for UQCRC2?
BNIP3L mRNA, set 1: 0.0601

For HOXC13, what was measured?
BNIP3L mRNA, set 1: 0.0626

With TSPAN6, how do the results read?
BNIP3L mRNA, set 1: 0.189

For SYT17, what was measured?
BNIP3L mRNA, set 1: 0.0978

What is on record for YPEL5?
BNIP3L mRNA, set 1: 0.183

How did the screen score ATXN10?
BNIP3L mRNA, set 1: 0.218

What is on record for FKBP1B?
BNIP3L mRNA, set 1: 0.085

With PBX4, what does the deposit list?
BNIP3L mRNA, set 1: 0.121

With JPH3, how do the results read?
BNIP3L mRNA, set 1: 0.153

With GCC2-AS1, how do the results read?
BNIP3L mRNA, set 1: 0.211

What is on record for METTL8?
BNIP3L mRNA, set 1: 0.0948

2 entries from above in another layout.
| target | BNIP3L mRNA, set 1 |
| --- | --- |
| UQCRC2 | 0.0601 |
| HOXC13 | 0.0626 |
